The target of this test is GST-ZDHHC12 (recombinant protein of ZDHHC12) (UniProt Q96GR4). In words: pull-down; GST fusion protein from E. coli BL21 captured on glutathione‐agarose beads, washed, incubated with cell lysate of the other protein overnight at 4 °C; only the target purified.

Protein sequences, listed by entry. Tags and fused reporters are not part of them. Lines headed by an entry give the natural chain unless they say otherwise; changes in a name come on top.
UniProt Q96GR4: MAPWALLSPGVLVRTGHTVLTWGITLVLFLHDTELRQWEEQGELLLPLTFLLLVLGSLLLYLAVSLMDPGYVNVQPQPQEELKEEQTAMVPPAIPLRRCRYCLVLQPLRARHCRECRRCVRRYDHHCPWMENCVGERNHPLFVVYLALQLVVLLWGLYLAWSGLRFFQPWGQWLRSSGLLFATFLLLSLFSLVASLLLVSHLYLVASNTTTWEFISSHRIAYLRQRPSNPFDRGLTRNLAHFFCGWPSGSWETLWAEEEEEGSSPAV

These are yes or no findings as the source states them, for the method shown. Binding seen in cells or lysates may run through a third protein. A result given as binding can be weak or reduced; the word gives no strength. Sequences can lack the tags named with a protein.

In PMC12561377 one finds binding data, which are given here for one molecule.

B1: HDAC8 (in the cell lysate used for the GST pull-down) (enzyme, UniProt Q9BY41 1-377)
chain: MEEPEEPADSGQSLVPVYIYSPEYVSMCDSLAKIPKRASMVHSLIEAYALHKQMRIVKPKVASMEEMATFHTDAYLQHLQKVSQEGDDDHPDSIEYGLGYDCPATEGIFDYAAAIGGATITAAQCLIDGMCKVAINWSGGWHHAKKDEASGFCYLNDAVLGILRLRRKFERILYVDLDLHHGDGVEDAFSFTSKVMTVSLHKFSPGFFPGTGDVSDVGLGKGRYYSVNVPIQDGIQDEKYYQICESVLKEVYQAFNPKAVVLQLGADTIAGDPMCSFNMTPVGIGKCLKYILQWQLATLILGGGGYNLANTARCWTYLTGVILGKTLSSEIPDHEFFTAYGPDYVLEITPSCRPDRNEPHRIQQILNYIKGNLKHVV
As to B1, the binding result is reported as “binds”.
